Assay results from publication PMC8257531.
Results are given in words; binding and its absence hold for the method and conditions named. Binding seen in cells or lysates may run through a third protein. A yes stands for co-enrichment or nearness to the bait. Other partners may have been found.

T1: ARL15^A86L (BioID bait) (UniProt Q9NXU5)
T1 sequence: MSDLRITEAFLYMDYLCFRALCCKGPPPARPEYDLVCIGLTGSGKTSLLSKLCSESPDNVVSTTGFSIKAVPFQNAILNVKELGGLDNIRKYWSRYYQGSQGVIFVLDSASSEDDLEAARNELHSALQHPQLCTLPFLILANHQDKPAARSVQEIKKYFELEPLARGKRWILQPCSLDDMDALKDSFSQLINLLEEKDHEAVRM


Target: T1, ARL15^A86L (BioID bait)
Experiment: proximity labelling; BioID; cleared lysates of ARL15^A86L expressing Flp-In T-REx HeLa cells on streptavidin beads, on-bead trypsin digestion, mass spectrometry; SAINT AvgP >= 0.95

Row | Binder | binding
1 | STT3A (protein, UniProt P46977 1-705) MTKFGFLRLSYEKQDTLLKLLILSMAAVLSFSTRLFAVLRFESVIHEFDPYFNYRTTRFLAEEGFYKFHNWFDDRAWYPLGRIIGGTIYPGLMITSAAIYHVLHFFHITIDIRNVCVFLAPLFSSFTTIVTYHLTKELKDAGAGLLAAAMIAVVPGYISRSVAGSYDNEGIAIFCMLLTYYMWIKAVKTGSICWAAKCALAYFYMVSSWGGYVFLINLIPLHVLVLMLTGRFSHRIYVAYCTVYCLGTILSMQISFVGFQPVLSSEHMAAFGVFGLCQIHAFVDYLRSKLNPQQFEVLFRSVISLVGFVLLTVGALLMLTGKISPWTGRFYSLLDPSYAKNNIPIIASVSEHQPTTWSSYYFDLQLLVFMFPVGLYYCFSNLSDARIFIIMYGVTSMYFSAVMVRLMLVLAPVMCILSGIGVSQVLSTYMKNLDISRPDKKSKKQQDSTYPIKNEVASGMILVMAFFLITYTFHSTWVTSEAYSSPSIVLSARGGDGSRIIFDDFREAYYWLRHNTPEDAKVMSWWDYGYQITAMANRTILVDNNTWNNTHISRVGQAMASTEEKAYEIMRELDVSYVLVIFGGLTGYSSDDINKFLWMVRIGGSTDTGKHIKENDYYTPTGEFRVDREGSPVLLNCLMYKMCYYRFGQVYTEAKRPPGFDRVRNAEIGNKDFELDVLEEAYTTEHWLVRIYKVKDLDNRGLSRT | binds
2 | STT3B (protein, UniProt Q8TCJ2 1-826) MAEPSAPESKHKSSLNSSPWSGLMALGNSRHGHHGPGAQCAHKAAGGAAPPKPAPAGLSGGLSQPAGWQSLLSFTILFLAWLAGFSSRLFAVIRFESIIHEFDPWFNYRSTHHLASHGFYEFLNWFDERAWYPLGRIVGGTVYPGLMITAGLIHWILNTLNITVHIRDVCVFLAPTFSGLTSISTFLLTRELWNQGAGLLAACFIAIVPGYISRSVAGSFDNEGIAIFALQFTYYLWVKSVKTGSVFWTMCCCLSYFYMVSAWGGYVFIINLIPLHVFVLLLMQRYSKRVYIAYSTFYIVGLILSMQIPFVGFQPIRTSEHMAAAGVFALLQAYAFLQYLRDRLTKQEFQTLFFLGVSLAAGAVFLSVIYLTYTGYIAPWSGRFYSLWDTGYAKIHIPIIASVSEHQPTTWVSFFFDLHILVCTFPAGLWFCIKNINDERVFVALYAISAVYFAGVMVRLMLTLTPVVCMLSAIAFSNVFEHYLGDDMKRENPPVEDSSDEDDKRNQGNLYDKAGKVRKHATEQEKTEEGLGPNIKSIVTMLMLMLLMMFAVHCTWVTSNAYSSPSVVLASYNHDGTRNILDDFREAYFWLRQNTDEHARVMSWWDYGYQIAGMANRTTLVDNNTWNNSHIALVGKAMSSNETAAYKIMRTLDVDYVLVIFGGVIGYSGDDINKFLWMVRIAEGEHPKDIRESDYFTPQGEFRVDKAGSPTLLNCLMYKMSYYRFGEMQLDFRTPPGFDRTRNAEIGNKDIKFKHLEEAFTSEHWLVRIYKVKAPDNRETLDHKPRVTNIFPKQKYLSKKTTKRKRGYIKNKLVFKKGKKISKKTV | binds
3 | LMAN1 (protein, UniProt P49257 31-510) DGVGGDPAVALPHRRFEYKYSFKGPHLVQSDGTVPFWAHAGNAIPSSDQIRVAPSLKSQRGSVWTKTKAAFENWEVEVTFRVTGRGRIGADGLAIWYAENQGLEGPVFGSADLWNGVGIFFDSFDNDGKKNNPAIVIIGNNGQIHYDHQNDGASQALASCQRDFRNKPYPVRAKITYYQNTLTVMINNGFTPDKNDYEFCAKVENMIIPAQGHFGISAATGGLADDHDVLSFLTFQLTEPGKEPPTPDKEISEKEKEKYQEEFEHFQQELDKKKEEFQKGHPDLQGQPAEEIFESVGDRELRQVFEGQNRIHLEIKQLNRQLDMILDEQRRYVSSLTEEISKRGAGMPGQHGQITQQELDTVVKTQHEILRQVNEMKNSMSETVRLVSGMQHPGSAGGVYETTQHFIDIKEHLHIVKRDIDNLVQRNMPSNEKPKCPELPPFPSCLSTVHFIIFVVVQTVLFIGYIMYRSQQEAAAKKFF | binds
4 | SLC12A2 (protein, UniProt P55011 1-1212) MEPRPTAPSSGAPGLAGVGETPSAAALAAARVELPGTAVPSVPEDAAPASRDGGGVRDEGPAAAGDGLGRPLGPTPSQSRFQVDLVSENAGRAAAAAAAAAAAAAAAGAGAGAKQTPADGEASGESEPAKGSEEAKGRFRVNFVDPAASSSAEDSLSDAAGVGVDGPNVSFQNGGDTVLSEGSSLHSGGGGGSGHHQHYYYDTHTNTYYLRTFGHNTMDAVPRIDHYRHTAAQLGEKLLRPSLAELHDELEKEPFEDGFANGEESTPTRDAVVTYTAESKGVVKFGWIKGVLVRCMLNIWGVMLFIRLSWIVGQAGIGLSVLVIMMATVVTTITGLSTSAIATNGFVRGGGAYYLISRSLGPEFGGAIGLIFAFANAVAVAMYVVGFAETVVELLKEHSILMIDEINDIRIIGAITVVILLGISVAGMEWEAKAQIVLLVILLLAIGDFVIGTFIPLESKKPKGFFGYKSEIFNENFGPDFREEETFFSVFAIFFPAATGILAGANISGDLADPQSAIPKGTLLAILITTLVYVGIAVSVGSCVVRDATGNVNDTIVTELTNCTSAACKLNFDFSSCESSPCSYGLMNNFQVMSMVSGFTPLISAGIFSATLSSALASLVSAPKIFQALCKDNIYPAFQMFAKGYGKNNEPLRGYILTFLIALGFILIAELNVIAPIISNFFLASYALINFSVFHASLAKSPGWRPAFKYYNMWISLLGAILCCIVMFVINWWAALLTYVIVLGLYIYVTYKKPDVNWGSSTQALTYLNALQHSIRLSGVEDHVKNFRPQCLVMTGAPNSRPALLHLVHDFTKNVGLMICGHVHMGPRRQAMKEMSIDQAKYQRWLIKNKMKAFYAPVHADDLREGAQYLMQAAGLGRMKPNTLVLGFKKDWLQADMRDVDMYINLFHDAFDIQYGVVVIRLKEGLDISHLQGQEELLSSQEKSPGTKDVVVSVEYSKKSDLDTSKPLSEKPITHKVEEEDGKTATQPLLKKESKGPIVPLNVADQKLLEASTQFQKKQGKNTIDVWWLFDDGGLTLLIPYLLTTKKKWKDCKIRVFIGGKINRIDHDRRAMATLLSKFRIDFSDIMVLGDINTKPKKENIIAFEEIIEPYRLHEDDKEQDIADKMKEDEPWRITDNELELYKTKTYRQIRLNELLKEHSSTANIIVMSLPVARKGAVSSALYMAWLEALSKDLPPILLVRGNHQSVLTFYS | binds
5 | SLC26A3 (protein, UniProt P40879 1-764) MIEPFGNQYIVARPVYSTNAFEENHKKTGRHHKTFLDHLKVCCSCSPQKAKRIVLSLFPIASWLPAYRLKEWLLSDIVSGISTGIVAVLQGLAFALLVDIPPVYGLYASFFPAIIYLFFGTSRHISVGPFPILSMMVGLAVSGAVSKAVPDRNATTLGLPNNSNNSSLLDDERVRVAAAASVTVLSGIIQLAFGILRIGFVVIYLSESLISGFTTAAAVHVLVSQLKFIFQLTVPSHTDPVSIFKVLYSVFSQIEKTNIADLVTALIVLLVVSIVKEINQRFKDKLPVPIPIEFIMTVIAAGVSYGCDFKNRFKVAVVGDMNPGFQPPITPDVETFQNTVGDCFGIAMVAFAVAFSVASVYSLKYDYPLDGNQELIALGLGNIVCGVFRGFAGSTALSRSAVQESTGGKTQIAGLIGAIIVLIVVLAIGFLLAPLQKSVLAALALGNLKGMLMQFAEIGRLWRKDKYDCLIWIMTFIFTIVLGLGLGLAASVAFQLLTIVFRTQFPKCSTLANIGRTNIYKNKKDYYDMYEPEGVKIFRCPSPIYFANIGFFRRKLIDAVGFSPLRILRKRNKALRKIRKLQKQGLLQVTPKGFICTVDTIKDSDEELDNNQIEVLDQPINTTDLPFHIDWNDDLPLNIEVPKISLHSLILDFSAVSFLDVSSVRGLKSILQEFIRIKVDVYIVGTDDDFIEKLNRYEFFDGEVKSSIFFLTIHDAVLHILMKKDYSTSKFNPSQEKDGKIDFTINTNGGLRNRVYEVPVETKF | binds
6 | ribophorin I protein (RPN1), endogenous, BioID prey (protein, UniProt P04843 24-607) ASSEAPPLINEDVKRTVDLSSHLAKVTAEVVLAHLGGGSTSRATSFLLALEPELEARLAHLGVQVKGEDEEENNLEVRETKIKGKSGRFFTVKLPVALDPGAKISVIVETVYTHVLHPYPTQITQSEKQFVVFEGNHYFYSPYPTKTQTMRVKLASRNVESYTKLGNPTRSEDLLDYGPFRDVPAYSQDTFKVHYENNSPFLTITSMTRVIEVSHWGNIAVEENVDLKHTGAVLKGPFSRYDYQRQPDSGISSIRSFKTILPAAAQDVYYRDEIGNVSTSHLLILDDSVEMEIRPRFPLFGGWKTHYIVGYNLPSYEYLYNLGDQYALKMRFVDHVFDEQVIDSLTVKIILPEGAKNIEIDSPYEISRAPDELHYTYLDTFGRPVIVAYKKNLVEQHIQDIVVHYTFNKVLMLQEPLLVVAAFYILFFTVIIYVRLDFSITKDPAAEARMKVACITEQVLTLVNKRIGLYRHFDETVNRYKQSRDISTLNSGKKSLETEHKALTSEIALLQSRLKTEGSDLCDRVSEMQKLDAQVKELVLKSAVEAERLVAGKLKKDTYIENEKLISGKRQELVTKIDHILDAL | binds
